PubChem BioAssay AID720505 | Drosophila RNAi Screening Center | 2013
The deposit covers about 20,000 reagents; this is a random part of those with a known target gene and a result. Of all reagents, about 2,100 (10%) were called active. 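Raw plate signals without normalisation; calls rest on control-based scores that were not deposited; replicate 2 separates called from uncalled poorly.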 Reagent sequences are not shown. The record does not give: the amount of reagent, the time to read-out.

Assay: 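Genes needed for store-operated calcium entry in fly cells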 (primary screen)
System: Drosophila S2R+ cells
Knock-down reagent: long dsRNA against Drosophila genes
Challenge: thapsigargin (2 µM) in calcium-free buffer to empty internal stores, then 2 mM calcium added back
Measured: 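Stores emptied by 2 µM thapsigargin without calcium, then 2 mM calcium re-added; fluo-4 fluorescence followed by FLIPR in 384-well plates, per-well averaged endpoint, raw; two screen passes, some wells retested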
Reading the numbers: calcium signal: higher = more calcium entry after store depletion
Active means: 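Knock-downs counted as hits when calcium entry dropped relative to STIM1 positive and Rho1 negative controls present on each plate; roughly 1500 genes called, with reductions of differing size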
Meaning of the calls: active = called as lowering calcium entry; inactive = not called

cl [DRSC02118] → calcium signal, replicate 1 = 97.6; calcium signal, replicate 2 = 268; call = inactive
CG11970 [DRSC14157] → calcium signal, replicate 1 = 132; calcium signal, replicate 2 = 130; call = inactive
Polr2I [DRSC16832] → calcium signal, replicate 1 = 73.7; calcium signal, replicate 2 = 51.4; call = active
CG7191 [DRSC03022] → calcium signal, replicate 1 = 80.5; calcium signal, replicate 2 = 86.8; call = active
CG30002 [DRSC05182] → calcium signal, replicate 1 = 135; calcium signal, replicate 2 = 154; call = inactive
CG4480 [DRSC02750] → calcium signal, replicate 1 = 101; calcium signal, replicate 2 = 133; call = inactive
Or45a [DRSC07487] → calcium signal, replicate 1 = 105; calcium signal, replicate 2 = 132; call = inactive
CG8012 [DRSC10951] → calcium signal, replicate 1 = 74.9; calcium signal, replicate 2 = 90; call = inactive
CG31093 [DRSC15689] → calcium signal, replicate 1 = 173; calcium signal, replicate 2 = 136; call = inactive
Rbsn-5 [DRSC03094] → calcium signal, replicate 1 = 118; calcium signal, replicate 2 = 158; call = inactive
CG34342 [DRSC09756] → calcium signal, replicate 1 = 99.7; calcium signal, replicate 2 = 64.4; call = inactive
CG34342 [DRSC22515] → calcium signal, replicate 1 = 107; calcium signal, replicate 2 = 169; call = inactive

Hits, of those listed so far:
Polr2I [DRSC16832] → calcium signal, replicate 1 = 73.7; calcium signal, replicate 2 = 51.4; call = active
CG7191 [DRSC03022] → calcium signal, replicate 1 = 80.5; calcium signal, replicate 2 = 86.8; call = active
